{
  "source": "PubChem BioAssay AID624297",
  "about": "(National Center for Advancing Translational Sciences (NCATS), 2012)",
  "note": "About 6,200 (1.8%) of roughly 340,000 compounds were called active. Inconclusive means that the source gave no clear call. Such entries were picked first, then a sample of the others. Calls come from the whole dose curve; as a rule, active = well fitted activation curve with a large enough effect; inconclusive = small, poorly fitted or top-dose-only effect; inactive = no such curve, though single readings can be large or run the other way. A potency beside an inconclusive call is a rough fit, not a confirmed value. Potency is the fitted concentration of half-maximal effect.",
  "data": [
    {"assay": "A quantitative high throughput screen for small molecules that induce DNA re-replication in SW480 colon adenocarcinoma cells; note: nearly all actives have a fitted effect of over 55% in size; for re-replication activation: % of control where 0% means no effect.", "settings": "Hoechst DNA content imaging, 48 h; re-replication activation: at 46.1 µM (top of the series)", "procedure,_shortened": "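Hoechst fluorescence of nuclei (405 nm excitation, 500-530 nm emission) measured by plate-scanning imager after 48 hr compound exposure at 37 C; re-replication scored as increased number of nuclei with elevated intensity.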", "values": [
      {"compound": "Cc1ccc(CS(=O)(=O)c2ncc(Cl)c(C(=O)Nc3ccc(OC(F)F)cc3)n2)cc1", "Potency": "inconclusive: 2.59 µM [activator, full curve]"},
      {"compound": "Cn1c(=NC(=O)CS(=O)(=O)c2ccccc2)sc2ccccc21", "re-replication activation": "inactive: -5.51%"},
      {"compound": "N#CCCn1cc(/C=N/NC(N)=S)c(-c2ccc(Br)cc2)n1", "Potency": "inconclusive: 5.8 µM [activator, single point]"},
      {"compound": "CC1=NN(C(=O)c2nn(C)cc2Br)C(O)(C(F)(F)F)C1", "note": "(centres undefined)", "Potency": "active: 13 µM"},
      {"compound": "O=C(/C(=C/c1cccc(Cl)c1)c1nc2ccccc2[nH]1)c1ccccc1", "Potency": "active: 18.4 µM"},
      {"compound": "N=C1CCC(=N)c2c1c(O)c1ccccc1c2O", "Potency": "inconclusive: 16.4 µM [activator, single point]"},
      {"compound": "Cc1ccc(C(C(=O)NCc2ccccc2)N(Cc2cccs2)C(=O)c2ccc3c(c2)OCCO3)cc1", "note": "(centres undefined)", "Potency": "inconclusive: 23.1 µM [activator, single point]"},
      {"compound": "CC(Sc1cccc[n+]1[O-])C(=O)Nc1cccc(S(=O)(=O)N2CCOCC2)c1", "note": "(centres undefined)", "Potency": "inconclusive: 29.1 µM [activator, single point]"},
      {"compound": "O=C(Nc1cccc(Br)c1)c1ccc2snnc2c1", "Potency": "inconclusive: 4.11 µM [activator, full curve, poor fit]"},
      {"compound": "Cc1cc(C)nc(-n2nc(C)c(Oc3ccccc3O)c2C)n1", "re-replication activation": "inactive: 1.9%"},
      {"compound": "COc1ccc(-c2csc(NC(=O)CSc3nc(SC)ns3)n2)cc1", "re-replication activation": "inactive: 0.785%"},
      {"compound": "COC(=O)c1sccc1NC(=O)CSc1ccccc1NS(=O)(=O)c1ccc(F)cc1", "re-replication activation": "inactive: 8.58%"},
      {"compound": "O=C(NCCc1ccccn1)c1ccc(NS(=O)(=O)c2ccc(F)cc2)cc1", "Potency": "inconclusive: 29.1 µM [activator, single point]"},
      {"compound": "Cc1cc(C)n(-c2ccc(C(=O)Nc3ccc4c(c3)OCO4)cc2)n1", "re-replication activation": "inactive: -9.26%"},
      {"compound": "CCOC(=O)C(C(=O)OCC)C(Nc1cccc(Br)c1)c1ccccc1", "note": "(centres undefined)", "Potency": "inconclusive: 18.4 µM [activator, single point]"},
      {"compound": "CCN(CC)CCCNC(=O)c1cc2c(-c3cccc(OC)c3)nn(C)c2s1", "Potency": "inconclusive: 29.1 µM [activator, single point]"},
      {"compound": "COc1ccc(NS(=O)(=O)c2cc(NC(=O)CC(=O)c3ccc([N+](=O)[O-])cc3)ccc2C)cc1", "Potency": "inconclusive: 18.4 µM [activator, single point]"},
      {"compound": "O=C(COC(=O)Cc1ccc([N+](=O)[O-])cc1)NC1CCCCCC1", "re-replication activation": "inactive: -5.69%"},
      {"compound": "COc1ccc(NC(=O)CSc2nnc(COc3ccccc3)n2Cc2ccco2)cc1OC", "re-replication activation": "inactive: -2.39%"},
      {"compound": "CC(=O)c1sc(NC(=O)CCS(=O)(=O)c2ccccc2)nc1C", "Potency": "active: 4.61 µM"},
      {"compound": "COc1ccc(S(=O)(=O)NC2CCSc3ccccc32)cc1OC", "note": "(centres undefined)", "re-replication activation": "inactive: -4.19%"},
      {"compound": "Cc1ccccc1CN1C[C@@H]2C[C@@H](c3cn[nH]c3-c3ccc(F)cc3)N3CCC[C@@]23C1=O", "re-replication activation": "inactive: 38.8%"},
      {"compound": "CCOc1ccc(N/C=C/C(=O)c2ccccc2)cc1", "Potency": "inconclusive: 18.4 µM [activator, single point]"},
      {"compound": "CCC1Sc2ccc(S(=O)(=O)CCC(=O)NCc3ccco3)cc2NC1=O", "note": "(centres undefined)", "re-replication activation": "inconclusive: -30.2% [activator]"},
      {"compound": "COc1ccccc1N(CC(=O)Nc1cccnc1)S(C)(=O)=O", "Potency": "inconclusive: 29.1 µM [activator, single point]"},
      {"compound": "Cc1cc(CSc2nc(C)cc(=O)[nH]2)c2ncccc2c1", "re-replication activation": "inactive: -0.0469%"},
      {"compound": "Cc1ccc(SCc2ccc(C(=O)NCc3cccnc3)cc2)cc1", "re-replication activation": "inactive: 0.161%"},
      {"compound": "NC(=O)/C(=N\\OC(=O)c1ccco1)c1nc(-c2ccc(Br)cc2)cs1", "re-replication activation": "inactive: 16.4%"},
      {"compound": "CCN(CC)CC#CCC(C)(c1ccccc1)c1ccccc1", "Potency": "inconclusive: 20.6 µM [activator, single point]"},
      {"compound": "COc1cccc(N2CCN(CC(=O)NC3=Nc4ccccc4N=C(C)C3c3ccccc3)CC2)c1", "note": "(centres undefined)", "Potency": "inconclusive: 20.6 µM [activator, single point]"},
      {"compound": "N#CC1=C(N)Oc2cc(N)ccc2C1c1ccccc1Cl", "note": "(centres undefined)", "re-replication activation": "inconclusive: 102% [activator]"},
      {"compound": "Cc1cccc(C)c1NC(=O)c1ccc(OCc2c(C)noc2C)cc1", "re-replication activation": "inactive: -2.99%"},
      {"compound": "O=C(NC1C/C=C\\C(c2ccccc2)N(c2ccccc2)C(=O)C1)OCC1c2ccccc2-c2ccccc21", "note": "(centres undefined)", "Potency": "inconclusive: 3.26 µM [activator, full curve, poor fit]"},
      {"compound": "Cc1ccccc1N=Cc1cc2c(cc1O)OC(N)=C(C#N)C2c1ccccc1", "note": "(centres undefined)", "Potency": "inconclusive: 20.6 µM [activator, partial curve, poor fit]"},
      {"compound": "CC(=O)n1cc(N(C(=O)CCl)c2ccc(Cl)cc2)c2ccccc21", "Potency": "active: 2.59 µM"},
      {"compound": "CN1CCc2c(sc(/N=C/c3c[nH]c4ccccc34)c2C(N)=O)C1", "re-replication activation": "inactive: -2.22%"},
      {"compound": "COCCn1c(=O)[nH]c2cc(C(=O)N3CCN(c4cccc(C)c4C)CC3)ccc2c1=O", "re-replication activation": "inactive: 2.43%"},
      {"compound": "CCOC(=O)C1(Cc2cccc(OC)c2)CCN(Cc2ccc3c(c2)OCCO3)CC1", "re-replication activation": "inactive: 0.0226%"},
      {"compound": "CCOc1ccc(CCNC(=O)c2nnn(CC(=O)Nc3ccc(C)cc3)c2N)cc1OCC", "Potency": "inconclusive: 32.6 µM [activator, single point]"},
      {"compound": "CN(C)CC(O)CN1C(=O)N(CN2C(=O)N(CC(O)CN(C)C)C(=O)C2(C)C)C(C)(C)C1=O", "note": "(centres undefined)", "re-replication activation": "inactive: -1.53%"},
      {"compound": "COC(=O)C1=C(C)N(Cc2ccccc2)C(=NCc2ccc(OC)cc2)N[C@H]1c1ccccc1", "re-replication activation": "inactive: 0.209%"},
      {"compound": "CCCn1nnc(NC(=O)/C=C/c2ccc(C(C)C)cc2)n1", "Potency": "inconclusive: 16.4 µM [activator, single point]"},
      {"compound": "Brc1ccc(C2Nc3cccc4cccc(c34)N2)cc1", "Potency": "inconclusive: 29.1 µM [activator, partial curve, poor fit]"},
      {"compound": "COC(=O)C1=CO[C@@H](OC2OC(CO)C(O)C(O)C2O)[C@@H]2[C@@H](C)[C@@H](O)C[C@H]12", "note": "(some centres undefined)", "Potency": "inconclusive: 9.2 µM [activator, partial curve, poor fit]"},
      {"compound": "CN(CC(=O)Nc1ccccc1Sc1ccccc1)C1CCCCC1", "Potency": "inconclusive: 16.4 µM [activator, single point]"},
      {"compound": "CCCOP(=O)(c1ccc(N(C)C)cc1)C(O)c1ccc(Cl)cc1", "note": "(centres undefined)", "re-replication activation": "inactive: -3.35%"},
      {"compound": "COc1cc(C(=O)OCC(=O)N2CCNC2=O)cc(Cl)c1OC", "re-replication activation": "inactive: -3.35%"},
      {"compound": "O=C(Nc1ccccc1Cl)c1ccc(=O)[nH]n1", "Potency": "inconclusive: 29.1 µM [activator, single point]"},
      {"compound": "COc1cc(CNCCCN2CCOCC2)cc(Cl)c1OCC(=O)NC(C)(C)C", "Potency": "inconclusive: 29.1 µM [activator, single point]"},
      {"compound": "CCc1ccc(Nc2ncnc3nc[nH]c23)cc1", "re-replication activation": "inactive: 3.41%"},
      {"compound": "CN(C)S(=O)(=O)c1cccc(NC(=O)COC(=O)/C=C/c2ccc3c(c2)OCO3)c1", "Potency": "inconclusive: 0.0052 µM [activator, full curve, poor fit]"},
      {"compound": "COCCCNc1nc(SCc2ccccc2)nc2sc3c(c12)CCC3", "Potency": "inconclusive: 20.6 µM [activator, partial curve, poor fit]"},
      {"compound": "CCN(CC)CCP(=O)(c1ccccc1)c1ccccc1", "Potency": "inconclusive: 29.1 µM [activator, single point]"},
      {"compound": "COc1cc(NC(=O)c2cccc(C)c2)ccc1NC(=O)c1cc2ccccc2o1", "re-replication activation": "inactive: 15.2%"},
      {"compound": "N#Cc1c(-c2ccccc2)cc2nc3ccccc3n2c1N", "re-replication activation": "inactive: 4.81%"},
      {"compound": "CCC(=O)NC(=S)NNC(=O)c1ccccc1[N+](=O)[O-]", "re-replication activation": "inactive: -8.5%"},
      {"compound": "CC(C)CNc1c(N)c(=O)oc2ccccc12", "Potency": "inconclusive: 18.4 µM [activator, single point]"},
      {"compound": "CSc1ccc(/C=C/C(=O)c2ccc(NC(=O)Cc3ccccc3)cc2)cc1", "Potency": "active: 18.4 µM"},
      {"compound": "CC(C)(C)Nc1nc(Cl)nc(NCc2ccccc2)n1", "re-replication activation": "inactive: 6.62%"},
      {"compound": "C/C(=N\\Nc1nc(C)cc(-c2ccccc2)n1)c1ccc(O)cc1", "Potency": "inconclusive: 9.2 µM [activator, single point]"},
      {"compound": "CCOc1ccc(C(C)NC(=O)Cc2ccccc2F)cc1OCC", "note": "(centres undefined)", "re-replication activation": "inactive: 1.27%"},
      {"compound": "COc1cc2nc(CSc3nc(-c4ccc(F)cc4)cs3)[nH]c(=O)c2cc1OC", "re-replication activation": "inactive: -1.07%"},
      {"compound": "CCC(C)C1Nc2ccc(C(=O)NCCc3ccc(OC)c(OC)c3)cc2NC1=O", "note": "(centres undefined)", "Potency": "inconclusive: 18.4 µM [activator, single point]"},
      {"compound": "COc1ccccc1-n1c(=S)[nH]c2c(sc(=S)n2-c2ccccc2C)c1=O", "Potency": "inconclusive: 29.1 µM [activator, single point]"},
      {"compound": "COc1cc(OC)c(NC(=O)CNC(=O)Cn2ccc3ccccc3c2=O)cc1Cl", "re-replication activation": "inactive: -2.2%"},
      {"compound": "OCCCNc1ncnc2sc(-c3ccccc3)cc12", "Potency": "inconclusive: 6.51 µM [activator, single point]"},
      {"compound": "Cc1ccc(Nc2nc(Nc3ccc(C)cc3)nc(SC3=NCCS3)n2)cc1", "Potency": "inconclusive: 29.1 µM [activator, single point]"},
      {"compound": "CC1(C)Cc2c(c(=S)nc(-c3ccccc3)n2CCCN2CCOCC2)CO1", "re-replication activation": "inactive: -0.054%"},
      {"compound": "COc1ccccc1OCCNC(=O)CCNS(=O)(=O)c1ccc(C)cc1", "Potency": "inconclusive: 3.26 µM [activator, partial curve, poor fit]"},
      {"compound": "COC(=O)c1ccc(NC(=S)Nc2ccc3ccccc3c2)cc1", "Potency": "inconclusive: 23.1 µM [activator, partial curve, poor fit]"},
      {"compound": "Cc1ccccc1C(=O)N1CCC2CC1c1cc(-c3ccc(F)cc3)ccc12", "note": "(centres undefined)", "re-replication activation": "inactive: -11%"},
      {"compound": "Cc1cc(C)c2cc(C#N)c(SCC(=O)NCc3ccco3)nc2c1", "Potency": "inconclusive: 29.1 µM [activator, single point]"},
      {"compound": "C[C@H](CO)N1C[C@H](C)[C@@H](CN(C)C(=O)Nc2ccc3c(c2)OCO3)Oc2c(cccc2N(C)C)C1=O", "Potency": "inconclusive: 3.26 µM [activator, partial curve, poor fit]"},
      {"compound": "CCOC(=O)N1CCC(NC(=O)C2CCCN(Cc3nc(-c4cccc(C)c4)oc3C)C2)CC1", "note": "(centres undefined)", "re-replication activation": "inactive: 0.351%"}
    ]}
  ]
}
